From the supplement of paper PMC11006884
Only a part is listed here, and it is no random draw. The data scatter; read single values as rough.

Chains of the proteins cited; added tags and fusions are not shown. Lines headed by an entry give the natural chain unless they say otherwise; changes in a name come on top.
UniProt Q8N6M0: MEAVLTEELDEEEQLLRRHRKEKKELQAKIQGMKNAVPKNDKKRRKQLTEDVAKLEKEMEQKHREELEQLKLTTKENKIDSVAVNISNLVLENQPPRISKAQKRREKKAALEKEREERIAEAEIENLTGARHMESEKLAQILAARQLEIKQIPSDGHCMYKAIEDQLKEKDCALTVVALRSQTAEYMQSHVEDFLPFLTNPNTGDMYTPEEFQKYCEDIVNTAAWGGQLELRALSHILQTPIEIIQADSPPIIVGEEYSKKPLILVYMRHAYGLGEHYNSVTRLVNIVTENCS
UniProt Q8NB37: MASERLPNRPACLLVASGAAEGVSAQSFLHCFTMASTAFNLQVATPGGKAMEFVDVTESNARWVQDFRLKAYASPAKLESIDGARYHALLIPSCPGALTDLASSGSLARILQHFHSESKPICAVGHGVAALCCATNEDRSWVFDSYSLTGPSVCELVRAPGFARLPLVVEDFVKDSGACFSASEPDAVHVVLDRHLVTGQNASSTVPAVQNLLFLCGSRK
UniProt Q8TB03: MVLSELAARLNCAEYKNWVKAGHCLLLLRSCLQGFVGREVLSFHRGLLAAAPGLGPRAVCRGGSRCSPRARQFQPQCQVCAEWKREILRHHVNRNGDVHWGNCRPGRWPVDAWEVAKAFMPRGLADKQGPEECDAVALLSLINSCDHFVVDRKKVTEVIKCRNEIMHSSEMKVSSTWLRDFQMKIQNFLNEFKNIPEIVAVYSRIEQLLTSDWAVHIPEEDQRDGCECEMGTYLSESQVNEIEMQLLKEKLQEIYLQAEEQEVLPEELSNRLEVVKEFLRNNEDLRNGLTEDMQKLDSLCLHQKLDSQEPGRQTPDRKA
UniProt Q8WU90: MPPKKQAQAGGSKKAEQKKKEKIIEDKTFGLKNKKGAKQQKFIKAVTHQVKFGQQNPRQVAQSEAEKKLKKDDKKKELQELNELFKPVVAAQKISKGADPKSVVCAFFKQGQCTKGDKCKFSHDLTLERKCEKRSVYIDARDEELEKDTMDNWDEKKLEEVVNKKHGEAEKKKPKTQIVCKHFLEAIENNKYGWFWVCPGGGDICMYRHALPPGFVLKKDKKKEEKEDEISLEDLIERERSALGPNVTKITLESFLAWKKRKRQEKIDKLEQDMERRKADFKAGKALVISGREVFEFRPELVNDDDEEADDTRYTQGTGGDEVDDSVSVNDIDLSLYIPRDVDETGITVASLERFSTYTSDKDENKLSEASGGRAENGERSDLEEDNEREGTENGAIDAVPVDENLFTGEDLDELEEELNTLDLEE
UniProt Q8NEW0: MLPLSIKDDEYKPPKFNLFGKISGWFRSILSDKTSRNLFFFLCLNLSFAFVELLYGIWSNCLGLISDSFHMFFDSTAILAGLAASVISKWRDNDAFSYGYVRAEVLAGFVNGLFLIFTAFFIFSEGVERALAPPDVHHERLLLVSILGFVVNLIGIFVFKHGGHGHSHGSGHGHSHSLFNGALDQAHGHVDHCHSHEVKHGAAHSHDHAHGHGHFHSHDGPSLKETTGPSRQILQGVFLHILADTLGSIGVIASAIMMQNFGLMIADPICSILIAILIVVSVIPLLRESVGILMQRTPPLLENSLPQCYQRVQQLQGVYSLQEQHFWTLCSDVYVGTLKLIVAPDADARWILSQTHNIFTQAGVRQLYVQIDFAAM
UniProt Q8N0X7: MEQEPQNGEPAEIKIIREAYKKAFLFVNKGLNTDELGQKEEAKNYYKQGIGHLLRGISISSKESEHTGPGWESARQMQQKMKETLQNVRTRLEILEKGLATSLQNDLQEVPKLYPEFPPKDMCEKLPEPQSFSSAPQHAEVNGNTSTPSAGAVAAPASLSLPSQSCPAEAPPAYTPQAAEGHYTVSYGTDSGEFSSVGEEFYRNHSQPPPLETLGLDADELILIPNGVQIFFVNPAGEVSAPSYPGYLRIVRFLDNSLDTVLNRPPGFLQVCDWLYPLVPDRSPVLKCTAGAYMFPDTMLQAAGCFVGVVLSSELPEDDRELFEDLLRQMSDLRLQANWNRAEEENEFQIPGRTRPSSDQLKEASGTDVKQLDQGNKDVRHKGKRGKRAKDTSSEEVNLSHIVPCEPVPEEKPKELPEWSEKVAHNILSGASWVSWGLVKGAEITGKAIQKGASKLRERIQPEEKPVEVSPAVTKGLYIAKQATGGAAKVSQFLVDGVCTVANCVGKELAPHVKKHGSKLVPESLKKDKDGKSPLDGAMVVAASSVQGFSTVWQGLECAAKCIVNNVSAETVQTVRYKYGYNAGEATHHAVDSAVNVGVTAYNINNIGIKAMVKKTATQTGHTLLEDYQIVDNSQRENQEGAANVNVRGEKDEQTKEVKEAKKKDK
UniProt Q8TEU7: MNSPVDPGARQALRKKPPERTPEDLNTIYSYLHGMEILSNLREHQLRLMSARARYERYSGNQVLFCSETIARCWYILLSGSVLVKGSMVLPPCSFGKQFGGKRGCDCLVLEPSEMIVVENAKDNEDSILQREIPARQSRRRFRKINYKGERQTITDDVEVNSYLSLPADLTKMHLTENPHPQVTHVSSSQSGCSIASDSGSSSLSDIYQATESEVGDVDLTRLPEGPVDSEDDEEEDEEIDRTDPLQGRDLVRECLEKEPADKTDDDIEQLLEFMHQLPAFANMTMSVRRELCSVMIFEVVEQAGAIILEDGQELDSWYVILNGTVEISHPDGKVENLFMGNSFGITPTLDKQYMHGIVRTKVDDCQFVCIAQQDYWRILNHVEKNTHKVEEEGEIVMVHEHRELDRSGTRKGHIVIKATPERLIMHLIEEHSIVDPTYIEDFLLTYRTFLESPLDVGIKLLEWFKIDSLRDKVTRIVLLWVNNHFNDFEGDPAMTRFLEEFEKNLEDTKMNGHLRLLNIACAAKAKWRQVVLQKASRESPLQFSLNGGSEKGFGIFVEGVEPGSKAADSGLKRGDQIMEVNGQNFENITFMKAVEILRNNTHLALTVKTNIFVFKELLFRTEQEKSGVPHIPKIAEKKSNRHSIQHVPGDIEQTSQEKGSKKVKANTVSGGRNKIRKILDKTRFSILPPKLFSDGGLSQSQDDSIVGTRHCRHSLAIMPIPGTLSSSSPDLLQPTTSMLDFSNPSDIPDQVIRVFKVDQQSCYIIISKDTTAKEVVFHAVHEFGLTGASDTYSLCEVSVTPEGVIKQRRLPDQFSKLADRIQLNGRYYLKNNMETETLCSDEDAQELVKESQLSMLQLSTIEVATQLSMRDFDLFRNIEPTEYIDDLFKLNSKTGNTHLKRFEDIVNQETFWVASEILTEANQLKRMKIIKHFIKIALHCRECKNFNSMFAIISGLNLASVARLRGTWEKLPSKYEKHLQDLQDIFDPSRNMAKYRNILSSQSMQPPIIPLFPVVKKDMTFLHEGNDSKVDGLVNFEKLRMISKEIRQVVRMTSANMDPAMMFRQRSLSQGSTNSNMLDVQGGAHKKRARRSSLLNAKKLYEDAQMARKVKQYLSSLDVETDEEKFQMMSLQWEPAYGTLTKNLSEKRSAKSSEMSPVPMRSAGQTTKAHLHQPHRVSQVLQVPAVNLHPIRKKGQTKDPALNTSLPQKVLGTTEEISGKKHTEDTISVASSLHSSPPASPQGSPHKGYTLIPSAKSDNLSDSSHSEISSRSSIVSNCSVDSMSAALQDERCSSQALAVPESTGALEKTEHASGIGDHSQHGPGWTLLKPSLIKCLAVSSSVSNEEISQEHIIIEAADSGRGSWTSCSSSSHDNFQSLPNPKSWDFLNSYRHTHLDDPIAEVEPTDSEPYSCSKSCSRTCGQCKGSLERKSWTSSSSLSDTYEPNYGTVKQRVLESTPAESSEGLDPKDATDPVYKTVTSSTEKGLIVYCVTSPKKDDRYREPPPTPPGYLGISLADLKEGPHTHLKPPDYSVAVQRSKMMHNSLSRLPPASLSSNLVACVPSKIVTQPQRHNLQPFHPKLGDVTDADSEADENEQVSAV
UniProt Q8WVM8, whole entry, looked up: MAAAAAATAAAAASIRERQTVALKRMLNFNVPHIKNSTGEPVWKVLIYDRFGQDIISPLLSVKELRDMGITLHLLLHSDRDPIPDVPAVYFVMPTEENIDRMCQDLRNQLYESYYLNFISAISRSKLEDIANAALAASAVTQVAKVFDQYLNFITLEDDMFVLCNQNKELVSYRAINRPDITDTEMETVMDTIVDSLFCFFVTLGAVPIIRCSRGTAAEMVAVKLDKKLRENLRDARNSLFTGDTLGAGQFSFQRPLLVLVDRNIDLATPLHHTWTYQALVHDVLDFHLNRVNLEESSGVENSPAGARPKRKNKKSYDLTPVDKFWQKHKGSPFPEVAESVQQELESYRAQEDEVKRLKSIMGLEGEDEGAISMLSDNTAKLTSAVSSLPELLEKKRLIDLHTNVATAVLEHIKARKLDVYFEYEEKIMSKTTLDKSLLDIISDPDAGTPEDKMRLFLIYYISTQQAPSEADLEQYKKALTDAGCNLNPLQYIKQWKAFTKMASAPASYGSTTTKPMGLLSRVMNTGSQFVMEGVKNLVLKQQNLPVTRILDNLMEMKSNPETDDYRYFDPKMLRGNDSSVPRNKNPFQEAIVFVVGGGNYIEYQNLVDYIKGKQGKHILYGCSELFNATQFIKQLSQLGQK
UniProt Q8WUM0: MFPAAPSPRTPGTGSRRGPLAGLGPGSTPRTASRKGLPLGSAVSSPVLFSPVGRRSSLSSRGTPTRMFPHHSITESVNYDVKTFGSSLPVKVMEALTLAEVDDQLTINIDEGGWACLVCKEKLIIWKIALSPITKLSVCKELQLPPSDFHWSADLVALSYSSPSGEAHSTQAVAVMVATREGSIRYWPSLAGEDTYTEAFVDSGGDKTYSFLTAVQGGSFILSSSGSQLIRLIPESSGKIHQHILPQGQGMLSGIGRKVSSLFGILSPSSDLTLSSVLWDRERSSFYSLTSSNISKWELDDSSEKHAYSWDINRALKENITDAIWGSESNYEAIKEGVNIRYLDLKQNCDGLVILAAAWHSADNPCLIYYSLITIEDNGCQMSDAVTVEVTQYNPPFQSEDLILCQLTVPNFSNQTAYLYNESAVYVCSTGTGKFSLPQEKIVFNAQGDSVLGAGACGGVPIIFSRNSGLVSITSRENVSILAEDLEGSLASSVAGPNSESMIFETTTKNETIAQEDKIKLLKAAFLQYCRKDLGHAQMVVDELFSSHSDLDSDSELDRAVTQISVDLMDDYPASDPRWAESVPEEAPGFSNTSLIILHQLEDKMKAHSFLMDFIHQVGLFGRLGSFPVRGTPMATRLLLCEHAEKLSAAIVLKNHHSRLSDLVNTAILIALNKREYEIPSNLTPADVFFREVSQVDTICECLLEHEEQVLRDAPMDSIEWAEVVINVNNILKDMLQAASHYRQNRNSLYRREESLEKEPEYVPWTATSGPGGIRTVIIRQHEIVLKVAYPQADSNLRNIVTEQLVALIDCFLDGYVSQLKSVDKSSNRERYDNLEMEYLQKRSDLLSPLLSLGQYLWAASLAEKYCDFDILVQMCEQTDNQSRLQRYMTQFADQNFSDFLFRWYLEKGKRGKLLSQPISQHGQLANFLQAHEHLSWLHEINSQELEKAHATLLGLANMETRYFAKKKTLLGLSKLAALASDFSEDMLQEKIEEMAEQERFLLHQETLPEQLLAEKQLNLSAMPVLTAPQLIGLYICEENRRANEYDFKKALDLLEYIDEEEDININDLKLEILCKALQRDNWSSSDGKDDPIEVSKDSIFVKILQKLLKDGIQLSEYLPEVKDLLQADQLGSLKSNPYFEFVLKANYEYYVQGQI
UniProt Q8NE71: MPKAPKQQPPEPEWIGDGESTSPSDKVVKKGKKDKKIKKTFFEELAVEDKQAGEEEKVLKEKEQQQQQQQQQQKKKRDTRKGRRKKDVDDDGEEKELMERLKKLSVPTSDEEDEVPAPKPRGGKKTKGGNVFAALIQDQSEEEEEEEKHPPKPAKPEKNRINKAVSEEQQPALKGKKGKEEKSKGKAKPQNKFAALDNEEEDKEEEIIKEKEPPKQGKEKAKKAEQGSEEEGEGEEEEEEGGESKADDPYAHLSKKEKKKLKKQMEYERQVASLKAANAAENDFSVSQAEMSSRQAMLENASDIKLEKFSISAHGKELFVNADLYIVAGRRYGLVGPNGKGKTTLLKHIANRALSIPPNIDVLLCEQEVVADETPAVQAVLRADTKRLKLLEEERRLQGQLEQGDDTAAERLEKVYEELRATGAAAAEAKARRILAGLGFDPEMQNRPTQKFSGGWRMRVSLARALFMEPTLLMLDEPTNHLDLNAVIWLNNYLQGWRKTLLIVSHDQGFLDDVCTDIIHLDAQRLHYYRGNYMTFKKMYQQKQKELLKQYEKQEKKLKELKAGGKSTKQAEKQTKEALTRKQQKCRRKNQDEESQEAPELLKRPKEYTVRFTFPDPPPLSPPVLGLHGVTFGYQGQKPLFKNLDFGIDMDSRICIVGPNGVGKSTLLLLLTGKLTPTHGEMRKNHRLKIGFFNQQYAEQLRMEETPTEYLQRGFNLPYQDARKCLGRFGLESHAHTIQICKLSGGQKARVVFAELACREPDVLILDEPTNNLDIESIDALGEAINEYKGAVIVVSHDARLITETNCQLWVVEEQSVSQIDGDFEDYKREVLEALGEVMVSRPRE

The targets below were run with COC(=O)/C=C/c1ccccc1 [methyl cinnamate] (assay: log2 ratio of iodoacetamide-alkyne labeling of the cysteine site, DMSO over compound (competition); higher = stronger covalent engagement of the cysteine by the compound, active = 1 or more). Settings: 500 µM; treatment time 1 h; system: HEK293T cell lysate.
Procedure, shortened: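 HEK293T lysate (2 mg/mL) was treated with DMSO or electrophile (500 µM, 1 h, ambient temperature), then iodoacetamide alkyne (1 h), clicked to sCIP-TMT reagents, pooled, trypsin-digested overnight at 37 °C, streptavidin-enriched and acid-eluted. Peptides were run on Orbitrap Eclipse LC-MS/MS with FAIMS and quantified in FragPipe. The log2 competition ratio per cysteine is mean control-channel over mean compound-channel reporter intensity. Duplicate channels and three replicates were used, and cysteines quantified in only one replicate were excluded.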

log2 ratio of iodoacetamide-alkyne labeling, inactive:
OTUD6B C292 (UniProt Q8N6M0) 0.297, GPD1L C9 (UniProt Q8N335) 0.273, UniProt Q8NB37_C154 0.304, SIRT6 C18 (UniProt Q8N6T7) 0.179, CXorf38 C300 (UniProt Q8TB03) -0.000308, UniProt Q8N5Z5_C61 -0.0529, ZC3H15 C105 (UniProt Q8WU90) 0.388, INTS1 C1701 (UniProt Q8N201) 0.0493, RB1CC1 C1413 (UniProt Q8TDY2) 0.212, TNRC6A C800 (UniProt Q8NDV7) 0.336, SLC30A7 C308 (UniProt Q8NEW0) 0.171, PDCD6IP C231 (UniProt Q8WUM4) 0.175, THOC2 C743 (UniProt Q8NI27) -0.091, SYNE2 C5348 (UniProt Q8WXH0) 0.222, WDTC1 C312 (UniProt Q8N5D0) 0.235, LRRC47 C249 (UniProt Q8N1G4) 0.216, NANP C242 (UniProt Q8TBE9) 0.3, LRRC47 C450 (UniProt Q8N1G4) -0.395, NUP35 C255 (UniProt Q8NFH5) 0.191, ZADH2 C55 (UniProt Q8N4Q0) -0.189, FLAD1 C236 (UniProt Q8NFF5) 0.103, SRBD1 C165 (UniProt Q8N5C6) -0.0659, DDHD1 C83 (UniProt Q8NEL9) -0.0269, UniProt Q8NB37_C94 0.119, UniProt Q8N0X7_C562 0.135, UniProt Q8WXA9_C494 0.291, SYNE1 C6090 (UniProt Q8NF91) 0.62, RAPGEF6 C1293 (UniProt Q8TEU7) 0.0929, CMAS C422 (UniProt Q8NFW8) 0.326, UniProt Q8NFC6_C1554 -0.0064, SLC20A1 C426 (UniProt Q8WUM9) 0.208, PHF10 C383 (UniProt Q8WUB8) 0.16, UniProt Q8WVV9_C103 -0.252, UniProt Q8NFC6_C1170 0.164, SCFD1 C485 (UniProt Q8WVM8) 0.165, NUP133 C702 (UniProt Q8WUM0) -0.235, ABCF1 C741 (UniProt Q8NE71) 0.248, PPP4R1 C566 (UniProt Q8TF05) 0.292
